Laboratory results published in patent US20230279091A1.
Results are given in words; binding and its absence hold for the method and conditions named. Some binding calls cover weakened binding; strength is not graded here.

By UniProt entry, the sequences of proteins in these tests, tags left out. Residues count along the entry.
UniProt P48094, residues 77-233: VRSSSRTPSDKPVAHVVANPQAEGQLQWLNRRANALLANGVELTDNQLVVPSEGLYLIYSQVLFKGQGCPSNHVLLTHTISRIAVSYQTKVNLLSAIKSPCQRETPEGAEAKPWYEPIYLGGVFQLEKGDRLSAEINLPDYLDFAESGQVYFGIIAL
UniProt P79337, residues 77-233: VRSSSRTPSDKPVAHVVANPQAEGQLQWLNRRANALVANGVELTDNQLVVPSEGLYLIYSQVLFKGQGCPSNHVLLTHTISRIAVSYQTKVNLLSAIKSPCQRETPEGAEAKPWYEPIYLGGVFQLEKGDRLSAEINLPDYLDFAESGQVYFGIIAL

Experiments:
[1] = target: Rhesus monkey TNFα (Rhesus monkey (Macaca mulatta)) (UniProt P48094); assay: L929 neutralisation (SPR nd)
[2] = target: recombinant Cynomolgus monkey TNFα (Cynomolgus monkey (Macaca fascicularis)) (UniProt P79337); assay: L929 neutralisation (SPR nd)

B1: humanized scFv 16-22-H05-sc04 (CDR/STR) (scFv)
scFv: MDIQMTQSPSSLSASVGDRVTITCQASQSIFSGLAWYQQKPGKAPKLLIYGASKLASGVPSRFSGSGSGTEFTLTISGLQPADFATYYCQSYYYSSSSSDGSYAFGGGTKLTVLGGGGGSGGGGSGGGGSGGGGSEVQLVESGGGLVQPGGSLRLSCKASGIDFNNYGIGWVRQAPGKGLEWITYIYPGFAITNFANSVKGRFTISSDNSKNTVYLQMNSLRAEDTAVYYCARDPVYATSSGYFDLWGQGTLVTVSS
- binding [1]: binds
- binding [2]: binds
